Drawing on the supplement of paper PMC10849652, this text covers log2 fold change for 26 targets.

Sequences of proteins named here, by UniProt entry; tags and fusion partners are left off. A change or cut given only in a name is not applied to a line headed by its entry.
UniProt Q96PK6: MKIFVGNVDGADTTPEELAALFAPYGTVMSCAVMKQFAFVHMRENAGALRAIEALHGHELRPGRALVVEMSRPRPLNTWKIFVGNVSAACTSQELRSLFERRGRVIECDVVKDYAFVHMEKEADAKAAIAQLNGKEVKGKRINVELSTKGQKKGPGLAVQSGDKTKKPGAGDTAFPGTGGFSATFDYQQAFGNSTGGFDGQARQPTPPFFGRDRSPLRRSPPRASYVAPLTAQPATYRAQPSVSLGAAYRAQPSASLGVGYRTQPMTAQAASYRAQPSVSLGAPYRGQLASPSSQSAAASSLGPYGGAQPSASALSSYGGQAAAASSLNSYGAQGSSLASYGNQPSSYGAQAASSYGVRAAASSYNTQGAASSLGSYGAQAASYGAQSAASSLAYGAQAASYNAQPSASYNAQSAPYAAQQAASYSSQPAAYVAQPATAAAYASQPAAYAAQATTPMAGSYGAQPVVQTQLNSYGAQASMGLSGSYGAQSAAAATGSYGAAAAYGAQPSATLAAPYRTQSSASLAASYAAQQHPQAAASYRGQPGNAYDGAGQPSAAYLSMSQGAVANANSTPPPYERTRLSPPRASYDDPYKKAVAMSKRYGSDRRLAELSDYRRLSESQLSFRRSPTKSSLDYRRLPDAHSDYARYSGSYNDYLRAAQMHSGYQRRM
UniProt Q5T8P6: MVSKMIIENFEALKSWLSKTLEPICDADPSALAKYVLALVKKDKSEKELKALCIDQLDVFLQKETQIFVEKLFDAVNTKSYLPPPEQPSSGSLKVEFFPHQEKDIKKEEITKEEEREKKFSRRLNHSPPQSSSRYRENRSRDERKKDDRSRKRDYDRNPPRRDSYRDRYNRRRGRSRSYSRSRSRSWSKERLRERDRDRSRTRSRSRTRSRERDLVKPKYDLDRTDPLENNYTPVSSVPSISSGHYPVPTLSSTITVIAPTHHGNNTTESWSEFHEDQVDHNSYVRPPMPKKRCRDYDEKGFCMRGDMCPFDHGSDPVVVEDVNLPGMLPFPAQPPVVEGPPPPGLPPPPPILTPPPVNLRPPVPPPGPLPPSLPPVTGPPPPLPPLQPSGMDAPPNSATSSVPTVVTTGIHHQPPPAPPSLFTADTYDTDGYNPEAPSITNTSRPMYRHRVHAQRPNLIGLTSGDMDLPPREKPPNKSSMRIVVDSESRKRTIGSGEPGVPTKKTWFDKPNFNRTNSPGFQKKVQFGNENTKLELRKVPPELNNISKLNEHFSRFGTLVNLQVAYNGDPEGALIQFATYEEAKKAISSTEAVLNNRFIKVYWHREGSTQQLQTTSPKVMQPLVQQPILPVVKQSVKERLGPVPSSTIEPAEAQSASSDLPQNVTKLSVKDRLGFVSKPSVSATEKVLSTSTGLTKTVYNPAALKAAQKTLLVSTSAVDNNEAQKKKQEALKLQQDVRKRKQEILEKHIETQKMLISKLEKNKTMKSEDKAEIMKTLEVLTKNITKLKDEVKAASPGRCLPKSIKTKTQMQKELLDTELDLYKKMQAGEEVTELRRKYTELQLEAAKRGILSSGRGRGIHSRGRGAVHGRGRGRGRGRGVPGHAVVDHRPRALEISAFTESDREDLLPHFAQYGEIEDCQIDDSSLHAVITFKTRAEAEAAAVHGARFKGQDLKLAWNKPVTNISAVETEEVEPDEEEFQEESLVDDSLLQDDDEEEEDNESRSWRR
UniProt P20936: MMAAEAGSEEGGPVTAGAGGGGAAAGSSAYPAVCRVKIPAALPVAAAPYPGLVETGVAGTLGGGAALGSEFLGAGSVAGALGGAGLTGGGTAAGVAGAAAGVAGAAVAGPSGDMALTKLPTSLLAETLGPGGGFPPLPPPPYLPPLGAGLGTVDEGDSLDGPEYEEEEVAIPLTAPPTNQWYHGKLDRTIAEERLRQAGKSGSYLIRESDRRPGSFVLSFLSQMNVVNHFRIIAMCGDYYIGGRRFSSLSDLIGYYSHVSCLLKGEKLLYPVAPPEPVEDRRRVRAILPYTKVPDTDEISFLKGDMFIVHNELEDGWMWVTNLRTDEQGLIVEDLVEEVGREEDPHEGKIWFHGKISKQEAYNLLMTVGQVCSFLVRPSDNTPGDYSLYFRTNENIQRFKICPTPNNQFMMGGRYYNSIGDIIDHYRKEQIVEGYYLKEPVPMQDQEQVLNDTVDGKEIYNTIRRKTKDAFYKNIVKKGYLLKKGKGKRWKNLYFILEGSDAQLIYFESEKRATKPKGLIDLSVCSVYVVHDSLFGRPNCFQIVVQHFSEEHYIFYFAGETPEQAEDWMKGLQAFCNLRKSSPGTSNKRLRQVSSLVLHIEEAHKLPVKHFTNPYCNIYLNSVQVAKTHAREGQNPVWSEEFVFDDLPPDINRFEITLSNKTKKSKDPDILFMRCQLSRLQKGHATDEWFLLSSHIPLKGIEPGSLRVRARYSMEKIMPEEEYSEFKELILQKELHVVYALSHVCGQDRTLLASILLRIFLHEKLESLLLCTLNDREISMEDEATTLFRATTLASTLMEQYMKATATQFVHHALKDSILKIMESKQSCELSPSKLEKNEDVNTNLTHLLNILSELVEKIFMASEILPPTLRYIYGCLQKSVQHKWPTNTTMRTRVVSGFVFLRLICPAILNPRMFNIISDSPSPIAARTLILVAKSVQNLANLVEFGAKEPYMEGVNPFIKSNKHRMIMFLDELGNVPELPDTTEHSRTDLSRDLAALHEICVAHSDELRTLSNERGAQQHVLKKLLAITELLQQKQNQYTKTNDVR
UniProt Q15283: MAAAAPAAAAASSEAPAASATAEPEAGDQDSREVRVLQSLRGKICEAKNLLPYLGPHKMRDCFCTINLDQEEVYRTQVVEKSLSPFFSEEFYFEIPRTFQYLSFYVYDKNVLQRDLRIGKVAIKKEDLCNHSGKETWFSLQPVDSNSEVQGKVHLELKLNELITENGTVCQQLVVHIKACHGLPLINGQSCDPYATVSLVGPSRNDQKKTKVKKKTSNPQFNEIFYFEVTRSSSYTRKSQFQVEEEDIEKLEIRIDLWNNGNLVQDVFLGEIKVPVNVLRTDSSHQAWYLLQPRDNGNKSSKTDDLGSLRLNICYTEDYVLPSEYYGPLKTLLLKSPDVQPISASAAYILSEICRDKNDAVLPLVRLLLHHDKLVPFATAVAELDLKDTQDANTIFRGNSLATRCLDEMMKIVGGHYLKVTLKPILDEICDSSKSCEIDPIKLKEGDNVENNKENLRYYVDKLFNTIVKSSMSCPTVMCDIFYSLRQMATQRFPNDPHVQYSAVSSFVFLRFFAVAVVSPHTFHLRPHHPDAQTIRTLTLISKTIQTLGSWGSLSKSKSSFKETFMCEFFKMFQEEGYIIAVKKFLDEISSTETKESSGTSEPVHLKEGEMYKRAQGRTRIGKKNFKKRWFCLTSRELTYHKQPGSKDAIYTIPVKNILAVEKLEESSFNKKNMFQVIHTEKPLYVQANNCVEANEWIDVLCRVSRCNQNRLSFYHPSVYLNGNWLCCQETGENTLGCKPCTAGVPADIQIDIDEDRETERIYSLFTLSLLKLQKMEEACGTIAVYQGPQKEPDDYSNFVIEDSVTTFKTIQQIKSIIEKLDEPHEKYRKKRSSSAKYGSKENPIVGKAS
UniProt Q9BYM8: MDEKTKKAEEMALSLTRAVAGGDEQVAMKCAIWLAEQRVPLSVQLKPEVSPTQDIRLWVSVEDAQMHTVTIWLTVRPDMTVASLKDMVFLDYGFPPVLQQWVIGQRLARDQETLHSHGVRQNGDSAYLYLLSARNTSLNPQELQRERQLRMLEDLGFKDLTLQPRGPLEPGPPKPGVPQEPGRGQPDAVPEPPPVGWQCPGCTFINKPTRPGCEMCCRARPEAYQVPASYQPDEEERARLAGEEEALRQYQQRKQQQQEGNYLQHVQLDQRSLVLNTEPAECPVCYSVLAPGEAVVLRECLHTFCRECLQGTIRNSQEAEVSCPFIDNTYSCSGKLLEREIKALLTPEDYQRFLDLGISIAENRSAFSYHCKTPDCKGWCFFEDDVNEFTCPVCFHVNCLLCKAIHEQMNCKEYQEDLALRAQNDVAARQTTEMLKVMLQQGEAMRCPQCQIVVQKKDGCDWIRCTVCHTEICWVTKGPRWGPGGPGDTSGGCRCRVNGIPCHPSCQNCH
UniProt Q86WH2: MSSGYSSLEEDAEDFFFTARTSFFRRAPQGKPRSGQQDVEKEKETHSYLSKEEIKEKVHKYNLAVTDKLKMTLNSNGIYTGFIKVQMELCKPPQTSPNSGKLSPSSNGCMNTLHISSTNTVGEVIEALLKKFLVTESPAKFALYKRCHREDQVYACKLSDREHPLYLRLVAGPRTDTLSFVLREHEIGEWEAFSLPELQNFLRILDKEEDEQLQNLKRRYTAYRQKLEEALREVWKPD
UniProt Q86U06: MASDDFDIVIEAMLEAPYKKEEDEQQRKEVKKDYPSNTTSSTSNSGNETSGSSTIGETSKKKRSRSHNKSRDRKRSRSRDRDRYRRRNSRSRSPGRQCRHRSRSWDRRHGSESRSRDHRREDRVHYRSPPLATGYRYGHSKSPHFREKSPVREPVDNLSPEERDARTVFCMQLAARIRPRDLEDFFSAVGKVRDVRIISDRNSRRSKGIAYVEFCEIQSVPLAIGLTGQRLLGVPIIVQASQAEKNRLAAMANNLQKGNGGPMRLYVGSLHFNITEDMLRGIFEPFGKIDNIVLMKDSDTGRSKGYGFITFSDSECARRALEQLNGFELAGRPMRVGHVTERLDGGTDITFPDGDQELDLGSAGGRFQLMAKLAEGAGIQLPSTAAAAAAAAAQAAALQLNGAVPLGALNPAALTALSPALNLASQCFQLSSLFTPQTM
UniProt O75884: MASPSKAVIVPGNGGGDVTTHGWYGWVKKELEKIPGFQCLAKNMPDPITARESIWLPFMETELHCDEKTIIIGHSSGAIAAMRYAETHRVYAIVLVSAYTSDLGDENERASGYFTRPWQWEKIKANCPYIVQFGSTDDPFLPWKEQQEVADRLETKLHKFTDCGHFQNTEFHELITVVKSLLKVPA
UniProt P28749: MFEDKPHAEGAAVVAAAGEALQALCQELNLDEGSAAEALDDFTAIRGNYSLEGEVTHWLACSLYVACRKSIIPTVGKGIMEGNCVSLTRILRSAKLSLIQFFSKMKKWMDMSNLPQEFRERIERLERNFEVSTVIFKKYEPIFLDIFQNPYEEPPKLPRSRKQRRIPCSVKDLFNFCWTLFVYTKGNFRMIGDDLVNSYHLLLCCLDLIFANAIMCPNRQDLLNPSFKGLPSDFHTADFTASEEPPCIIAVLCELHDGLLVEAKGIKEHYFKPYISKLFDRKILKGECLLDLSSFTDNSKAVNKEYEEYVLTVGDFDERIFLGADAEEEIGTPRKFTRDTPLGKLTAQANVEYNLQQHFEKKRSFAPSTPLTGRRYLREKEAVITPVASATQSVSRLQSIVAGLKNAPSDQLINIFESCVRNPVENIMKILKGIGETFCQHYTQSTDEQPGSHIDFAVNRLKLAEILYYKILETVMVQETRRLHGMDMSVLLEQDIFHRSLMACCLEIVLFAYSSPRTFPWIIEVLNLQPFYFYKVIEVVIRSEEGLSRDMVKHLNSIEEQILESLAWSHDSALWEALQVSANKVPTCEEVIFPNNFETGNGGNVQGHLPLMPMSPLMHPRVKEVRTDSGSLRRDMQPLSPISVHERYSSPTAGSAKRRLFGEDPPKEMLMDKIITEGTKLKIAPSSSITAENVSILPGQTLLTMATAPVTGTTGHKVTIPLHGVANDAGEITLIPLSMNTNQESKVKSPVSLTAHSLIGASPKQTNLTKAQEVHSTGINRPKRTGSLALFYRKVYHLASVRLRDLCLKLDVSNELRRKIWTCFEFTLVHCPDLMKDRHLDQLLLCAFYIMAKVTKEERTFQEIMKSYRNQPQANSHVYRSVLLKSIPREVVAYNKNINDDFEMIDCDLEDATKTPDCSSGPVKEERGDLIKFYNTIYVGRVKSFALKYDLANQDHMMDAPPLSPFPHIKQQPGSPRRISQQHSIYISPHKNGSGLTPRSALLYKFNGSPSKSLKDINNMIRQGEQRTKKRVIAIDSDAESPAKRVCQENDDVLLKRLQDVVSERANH
UniProt Q9H5N1: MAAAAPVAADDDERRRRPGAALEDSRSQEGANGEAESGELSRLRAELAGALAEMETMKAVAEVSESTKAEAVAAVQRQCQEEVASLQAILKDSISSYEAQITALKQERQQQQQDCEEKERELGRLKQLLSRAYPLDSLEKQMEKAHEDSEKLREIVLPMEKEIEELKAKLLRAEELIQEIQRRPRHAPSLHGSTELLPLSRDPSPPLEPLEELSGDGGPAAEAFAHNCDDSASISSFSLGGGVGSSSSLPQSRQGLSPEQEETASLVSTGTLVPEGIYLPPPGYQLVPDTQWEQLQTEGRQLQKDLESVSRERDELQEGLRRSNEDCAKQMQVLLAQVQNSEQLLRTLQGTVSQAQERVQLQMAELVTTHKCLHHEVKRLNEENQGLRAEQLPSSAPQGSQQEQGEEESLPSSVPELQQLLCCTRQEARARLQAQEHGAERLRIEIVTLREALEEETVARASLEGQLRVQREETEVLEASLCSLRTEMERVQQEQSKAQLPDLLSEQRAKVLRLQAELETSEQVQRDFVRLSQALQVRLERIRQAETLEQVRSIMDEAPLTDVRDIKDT

The other results are listed elsewhere or left out.

Compound in one test: C/C(=N\NC(=O)C1=CC(=CC=C1)S(=O)(=O)N2CCOCC2)/C3=C(C=CC(=C3)Cl)O
In words: log2 fold change, soluble protein after heating vs DMSO (PISA); higher = thermal stabilisation; K562 cells, 10 uM, 30 min; active = over 0.2 and 3.5 SD of the protein, either way, in both replicates (recomputed). The method in brief: (§1)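 K562 cells at 2×10^6 cells/mL were exposed to 10 μM compound for 30 min, then aliquots were heated for 3 min across 48°C-58°C, pooled, and extracted in PBS containing 0.5% NP-40 at 4°C. The supernatant after 21,000xg for 90 min was taken as soluble protein and measured by TMTpro 16plex LC-MS/MS with channel sums equalised. Thermal stability is reported relative to control samples, with values from duplicates. Fold changes are given on a log2 scale.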
In the case of RBBP4 isoform 2 (UniProt Q09028), the log2 fold change was inactive: -0.111.

Turning to RBM14 (UniProt Q96PK6), the log2 fold change was inactive: -0.318. On the same count and under the same terms, as for RBM26 isoform 3 (UniProt Q5T8P6), the figure is inactive: 0.22; as for RBKS (UniProt Q9H477), inactive: -0.311. Regarding RAB28 (UniProt P51157), the log2 fold change was inactive: -0.167. On to RAD50, A0A494C0Y7, for which the log2 fold change is inactive: -0.029. On the same count and under the same terms, as for RALBP1 (UniProt Q15311), the figure is inactive: -0.045; as for RASA1 (UniProt P20936), inactive: 0.305; as for RASA2 (UniProt Q15283), inactive: -0.401. Consider RBBP8 isoform 2 (UniProt Q99708), for which the log2 fold change is inactive: 0.232. RAP1B (UniProt F5GWU8): the log2 fold change is inactive: -0.438. In the case of RBCK1 (UniProt Q9BYM8), the log2 fold change is inactive: 0.116. Regarding RAD51D (UniProt O75771), the log2 fold change is inactive: 0.055.

In the case of RAB27B (UniProt O00194), the log2 fold change was inactive: 0.092.

Turning to RAPGEF5, A0A590UJR0, the log2 fold change is inactive: -0.628.

With RALGAPB (UniProt Q86X10), the log2 fold change is inactive: 0.012.

As to RASSF3 (UniProt Q86WH2), the log2 fold change is inactive: -0.016. As for RAB3D (UniProt O95716), the log2 fold change is inactive: 0.036.

Compound in the next test: C1=CC(=C(C=C1Cl)C2=NC3=NC=CN=C3C(=N2)NC4=CC=NC=C4)F
Described as above. The method in brief: as §1
RAB19 isoform 2 (UniProt A4D1S5): the log2 fold change was inactive: 0.331. On to RAI1 (UniProt Q7Z5J4), for which the log2 fold change is inactive: -0.672. Still for that read-out and setting: under RALBP1 (UniProt Q15311) stands inactive: -0.216. With RASA1 (UniProt P20936), the log2 fold change was inactive: -0.056. As for RBM23 (UniProt Q86U06), the log2 fold change is inactive: -0.05.

With RASA2 (UniProt Q15283), the log2 fold change is inactive: -0.011. Take RBCK1 (UniProt Q9BYM8): the log2 fold change was inactive: 0.059.

RBBP9 (UniProt O75884): the log2 fold change was inactive: -0.037. On to RALGAPB (UniProt Q86X10), for which the log2 fold change was inactive: 0.072.

Compound in another test: C1=CC(=CC=C1C2=NC3=C(N2)C=C(C=C3)C(=O)N)OC4=CC=C(C=C4)Cl
Described as above. The method in brief:
as §1
As for RBBP4 isoform 2 (UniProt Q09028), the log2 fold change was inactive: 0.031. Still for that read-out and setting: under RBM14 (UniProt Q96PK6) stands inactive: 0.069; under RAB28 (UniProt P51157), inactive: 0.02. Still for that read-out and setting: as for RAB3B (UniProt P20337), the figure is inactive: 0.073; as for RBL1 (UniProt P28749), inactive: -0.149. Take RANBP3 isoform 2 (UniProt Q9H6Z4): the log2 fold change is inactive: 0.061.

Regarding RAI1 (UniProt Q7Z5J4), the log2 fold change was inactive: -0.156.

RABEP2 (UniProt Q9H5N1): the log2 fold change was inactive: 0.022. With RASA1 (UniProt P20936), the log2 fold change is inactive: -0.094. Regarding RBM23 (UniProt Q86U06), the log2 fold change is inactive: 0.19. With RBBP8 isoform 2 (UniProt Q99708), the log2 fold change is inactive: 0.002.

For RBCK1 (UniProt Q9BYM8), the log2 fold change was inactive: 0.034. Same read-out and setting: under RAD51D (UniProt O75771) stands inactive: -0.025; under RAB27B (UniProt O00194), inactive: 0.031. The same measure, in the same setting: as for RAPGEF5, A0A590UJR0, the figure is inactive: -0.178; as for RASSF3 (UniProt Q86WH2), inactive: 0.028. Turning to RAB3D (UniProt O95716), the log2 fold change was inactive: -0.141.
